These are yes or no findings as the source states them, for the method shown. In cells and extracts the contact can be indirect. These calls come from enrichment with a bait or labelling near it, and not all partners need be listed.
Biological target: His-tagged SARS-CoV-2 NSP3 (SARS-CoV-2) (UniProt P0DTD1)
Test: affinity purification with mass spectrometry

B1: DNAJC11 identified by mass spectrometry (HEK-293T cells) (protein, UniProt Q9NVH1 1-559)
chain: MATALSEEELDNEDYYSLLNVRREASSEELKAAYRRLCMLYHPDKHRDPELKSQAERLFNLVHQAYEVLSDPQTRAIYDIYGKRGLEMEGWEVVERRRTPAEIREEFERLQREREERRLQQRTNPKGTISVGVDATDLFDRYDEEYEDVSGSSFPQIEINKMHISQSIEAPLTATDTAILSGSLSTQNGNGGGSINFALRRVTSAKGWGELEFGAGDLQGPLFGLKLFRNLTPRCFVTTNCALQFSSRGIRPGLTTVLARNLDKNTVGYLQWRWGIQSAMNTSIVRDTKTSHFTVALQLGIPHSFALISYQHKFQDDDQTRVKGSLKAGFFGTVVEYGAERKISRHSVLGAAVSVGVPQGVSLKVKLNRASQTYFFPIHLTDQLLPSAMFYATVGPLVVYFAMHRLIIKPYLRAQKEKELEKQRESAATDVLQKKQEAESAVRLMQESVRRIIEAEESRMGLIIVNAWYGKFVNDKSRKSEKVKVIDVTVPLQCLVKDSKLILTEASKAGLPGFYDPCVGEEKNLKVLYQFRGVLHQVMVLDSEALRIPKQSHRIDTDG
B1 was tested, and the binding was “binds”.
